{
  "source": "patent US7465544B2",
  "about": "“Synthetic cofactor analogs of S-adenosylmethionine as ligatable probes of biological methylation and methods for their use” (Wisconsin Alumni Research Foundation, priority 2006, dated 2008)",
  "key": {"DNA alkylated by 67": {"system": "DNA alkylated by 67", "assay": "Piperidine digestion of DNA alkylated by 67", "settings": "0.5M piperidine, 90° C., 30 min"}, "56-modified DNA": {"system": "56-modified DNA", "assay": "Aqueous Huisgen [2+3] cycloaddition with alkyne-modified DNA (DPAGE)"}, "Immobilized Streptavidin": {"system": "Immobilized Streptavidin", "assay": "Immobilized streptavidin pull-down assay", "format": "binding", "settings": "for retention of radiolabeled DNA on streptavidin-agarose, aryl azide adduct / retention of radiolabeled DNA on streptavidin-agarose, alkyl azide adduct 25b: M.TaqI products, scintillation counting; for retention of radiolabeled DNA on streptavidin-agarose, aryl azide adduct: relative to a DMF control devoid of phosphine; for ligation to azide-linked pUC19 via the streptavidin pull-down assay: initial efforts"}, "azide-linked DNA": {"system": "azide-linked DNA", "assay": "Staudinger ligation of triarylphosphines with cofactor analog-linked 32P-labeled oligonucleotide (DPAGE)", "settings": "500 nM DNA, 20-fold excess of triarylphosphine, 37° C. 14 h; M.TaqI-derived products"}},
  "note": "“Also recorded” adds a separate entry of the source. Where a name gives a salt, the structure may show the parent alone.",
  "data": [
    {"molecule": "Nc1ncnc2c1ncn2[C@@H]1O[C@H](CN(CCI)CC[C@H](N)C(=O)O)C(O)[C@@H]1O", "note": "(stereo partly drawn) [compound 67, 5′-(diaminobutyric acid)-N-iodoethyl-5′-deoxyadenosine ammonium hydrochloride]", "values": [
      {"measurement": "piperidine-promoted cleavage specific to reactions with both MTase and 67", "setting": "DNA alkylated by 67", "value": "did not lead to significant cleavage events"}
    ]},
    {"molecule": "C#CCN(CCI)C[C@H]1O[C@@H](n2cnc3c(N)ncnc32)[C@@H](O)C1O", "note": "(stereo partly drawn) [compound 56, 5′-[(iodoethyl)propargyl)amino]-2′,3′-5′-deoxyadenosine hydrochloride]", "values": [
      {"measurement": "Huisgen cycloaddition of modified DNA with azide 62", "setting": "56-modified DNA", "value": "extremely facile coupling"}
    ]},
    {"molecule": "COC(=O)c1ccc(C(=O)NCCCOCCOCCOCCCNC(=O)CCCC[C@@H]2SC[C@@H]3NC(=O)N[C@@H]32)cc1P(c1ccccc1)c1ccccc1", "note": "[compound 42]", "values": [
      {"measurement": "retention of radiolabeled DNA on streptavidin-agarose, aryl azide adduct", "setting": "Immobilized Streptavidin", "value": "high degree of radioisotopic retention"},
      {"measurement": "retention of radiolabeled DNA on streptavidin-agarose, alkyl azide adduct 25b", "setting": "Immobilized Streptavidin", "value": "retention of radioactivity"},
      {"measurement": "ligation to azide-linked pUC19 via the streptavidin pull-down assay", "setting": "Immobilized Streptavidin", "value": "failed to yield discernible ligation"},
      {"measurement": "Staudinger ligation to cofactor analog-modified DNA (DNA mobility shift)", "setting": "azide-linked DNA", "value": "significant reduction in DNA mobility"}
    ]},
    {"molecule": "5′-aziridine adenylate [compound 3, reference compound]", "values": [
      {"measurement": "Staudinger ligation to cofactor analog-modified DNA (DNA mobility shift)", "setting": "azide-linked DNA", "value": "no shift"},
      {"measurement": "Huisgen cycloaddition of modified DNA with azide 62", "setting": "56-modified DNA", "value": "afforded no new radiolabeled product"}
    ]},
    {"molecule": "O=C(CCCC[C@@H]1SC[C@@H]2NC(=O)N[C@@H]21)NCCCCCOC(=O)c1ccccc1P(c1ccccc1)c1ccccc1", "note": "[compound 44, 2-Diphenylphosphanyl-benzoic acid 5-(biotin)-pentyl ester]", "values": [
      {"measurement": "retention of radiolabeled DNA on streptavidin-agarose, aryl azide adduct", "setting": "Immobilized Streptavidin", "value": "high degree of radioisotopic retention"},
      {"measurement": "retention of radiolabeled DNA on streptavidin-agarose, alkyl azide adduct 25b", "setting": "Immobilized Streptavidin", "value": "did not ligate"},
      {"measurement": "ligation to azide-linked pUC19 via the streptavidin pull-down assay", "setting": "Immobilized Streptavidin", "value": "failed to yield discernible ligation"},
      {"measurement": "Staudinger ligation to cofactor analog-modified DNA (DNA mobility shift)", "setting": "azide-linked DNA", "value": "only ligated to the product derived from 25a; also recorded: remarkably efficient"}
    ]}
  ]
}
